These are yes or no findings as the source states them, for the method shown. A result given as binding can be weak or reduced; the word gives no strength.

The assay has as its target human BDCA2 on the HEK293/hBDCA2/FcεRIγ cell line (human). The assay is described as follows: flow cytometry on HEK293/hBDCA2/FcεRIγ cells.

B1: anti-BDCA2 chimeric antibody 37F2C6 (antibody, human IgG1, kappa, V domains shown)
VH: QVLLQQSGPELVRPGVSVKVSCKGSGYTFTDFAVHWVKQSQTKSLEWIGLIGTSSGSTNYNQKFKDKATMTVDKSSNTAYLELARLTSEDSAIYYCARNGYYVGYYALDYWGQGTSVTVSS
VL: QTVLTQSPAIMSASPGEKVTITCSASSSVSYMYWFQQKPGTSPKLWIYSTSNLASGVPPRFSGSGSGTSYSLTISRMEAEDAATYYCQQRRNYPHTFGGGTKLEIKR
As to B1, the binding entry is given as “binds”.
